Binding data for two substances are collected here from article PMC3858555.

Protein sequences, listed by entry. Tags and fused reporters are not part of them. Lines headed by an entry give the natural chain unless they say otherwise; changes in a name come on top. Chains listed by the source or under a name are the forms on record and can include a tag or linker.
UniProt Q14247: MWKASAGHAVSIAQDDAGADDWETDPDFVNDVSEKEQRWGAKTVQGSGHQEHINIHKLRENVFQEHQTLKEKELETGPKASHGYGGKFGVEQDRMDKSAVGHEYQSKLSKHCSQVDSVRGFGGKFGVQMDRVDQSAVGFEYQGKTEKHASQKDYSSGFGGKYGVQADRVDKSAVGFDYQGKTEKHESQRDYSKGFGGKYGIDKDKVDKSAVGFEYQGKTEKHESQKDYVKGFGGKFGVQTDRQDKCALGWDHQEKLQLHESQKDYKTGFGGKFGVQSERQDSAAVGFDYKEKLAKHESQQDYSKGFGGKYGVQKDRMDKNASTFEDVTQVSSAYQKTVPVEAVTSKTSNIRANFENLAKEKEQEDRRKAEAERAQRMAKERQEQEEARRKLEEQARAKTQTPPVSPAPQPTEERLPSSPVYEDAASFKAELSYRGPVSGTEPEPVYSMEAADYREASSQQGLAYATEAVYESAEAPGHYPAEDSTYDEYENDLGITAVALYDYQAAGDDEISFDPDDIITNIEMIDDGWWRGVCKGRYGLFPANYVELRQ
MUC1/Y, an isoform of MUC1 lacking most of the extracellular domain (P15941, form named): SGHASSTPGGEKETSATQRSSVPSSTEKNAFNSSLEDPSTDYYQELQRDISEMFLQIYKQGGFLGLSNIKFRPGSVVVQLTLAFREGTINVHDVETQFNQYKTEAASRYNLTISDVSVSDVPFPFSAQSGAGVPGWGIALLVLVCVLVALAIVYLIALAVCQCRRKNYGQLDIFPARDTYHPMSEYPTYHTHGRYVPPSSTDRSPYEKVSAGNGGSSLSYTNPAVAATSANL
UniProt Q96B97: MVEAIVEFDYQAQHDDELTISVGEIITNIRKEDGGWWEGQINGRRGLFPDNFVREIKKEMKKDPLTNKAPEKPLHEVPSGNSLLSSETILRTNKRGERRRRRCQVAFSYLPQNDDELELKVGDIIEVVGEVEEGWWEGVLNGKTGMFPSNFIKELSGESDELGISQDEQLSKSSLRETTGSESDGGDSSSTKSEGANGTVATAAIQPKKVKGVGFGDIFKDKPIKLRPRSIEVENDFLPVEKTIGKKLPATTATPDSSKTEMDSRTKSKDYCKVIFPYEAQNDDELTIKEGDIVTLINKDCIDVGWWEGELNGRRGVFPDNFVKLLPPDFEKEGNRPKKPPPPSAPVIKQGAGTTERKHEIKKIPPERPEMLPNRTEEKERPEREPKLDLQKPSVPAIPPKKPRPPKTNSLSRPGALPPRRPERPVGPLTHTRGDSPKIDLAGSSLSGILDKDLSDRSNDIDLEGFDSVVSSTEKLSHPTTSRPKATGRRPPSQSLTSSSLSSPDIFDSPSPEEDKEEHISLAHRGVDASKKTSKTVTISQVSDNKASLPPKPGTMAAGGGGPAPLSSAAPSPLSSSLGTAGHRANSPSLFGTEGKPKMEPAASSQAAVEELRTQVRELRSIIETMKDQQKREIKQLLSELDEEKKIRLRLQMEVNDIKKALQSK
UniProt Q8R550: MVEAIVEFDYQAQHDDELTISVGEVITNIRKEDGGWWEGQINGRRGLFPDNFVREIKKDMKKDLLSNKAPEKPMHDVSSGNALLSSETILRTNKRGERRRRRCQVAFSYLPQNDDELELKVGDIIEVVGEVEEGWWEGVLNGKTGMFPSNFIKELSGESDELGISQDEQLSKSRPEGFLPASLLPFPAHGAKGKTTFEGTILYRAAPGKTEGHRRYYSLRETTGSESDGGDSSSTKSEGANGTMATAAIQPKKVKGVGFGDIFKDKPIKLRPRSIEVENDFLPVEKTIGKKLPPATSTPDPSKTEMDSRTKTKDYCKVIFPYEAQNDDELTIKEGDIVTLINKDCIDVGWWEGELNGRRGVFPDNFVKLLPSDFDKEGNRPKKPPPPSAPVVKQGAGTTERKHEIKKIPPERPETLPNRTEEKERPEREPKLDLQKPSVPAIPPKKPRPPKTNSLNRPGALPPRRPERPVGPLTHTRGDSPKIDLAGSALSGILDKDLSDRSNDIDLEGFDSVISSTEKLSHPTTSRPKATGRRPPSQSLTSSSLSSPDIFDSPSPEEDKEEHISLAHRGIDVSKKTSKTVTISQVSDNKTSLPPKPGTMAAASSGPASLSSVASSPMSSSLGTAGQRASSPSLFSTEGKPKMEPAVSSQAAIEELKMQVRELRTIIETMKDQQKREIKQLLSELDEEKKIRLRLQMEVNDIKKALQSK

For test [1], the target named is cortactin (human (endogenous in MDA-MB-231)) (UniProt Q14247). The test can be described thus: co-IP; MDA-MB-231 lysate precipitated with anti-cortactin antibody or control IgG, blotted with anti-MUC1 and anti-CIN85.
Test [2] addresses MUC1/Y, an isoform of MUC1 lacking most of the extracellular domain (human) (UniProt P15941). The test can be described thus: co-IP; DM6, B16 and RMA cells stably transfected with MUC1/22TR or MUC1/Y; which antibody precipitated is not told (Supplementary Fig S1).

These are yes or no findings as the source states them, for the method shown. Binding seen in cells or lysates may run through a third protein. Some binding calls cover weakened binding; strength is not graded here.

Turning to “CIN85 of human tumor cell lines (from UniProt Q96B97 1-665)”, the binding entry in test [1] and in test [2] was “binds” in each case. Regarding “CIN85 of mouse tumor cell lines (from UniProt Q8R550 1-709)”, the binding entry in test [2] is on record as “binds”.
